Experimental data as given in patent US20040220205A1 (priority 2001, published 2004).
For at least one compound, name, drawing or mass did not settle the structure.

System: rats
Experiment: Behavioural experiment - injection into duodenum (with oral control)
Assay type: in vivo
Conditions: rat, bolus injection into duodenum, 5.0 mg/kg; period after injection, units min and h printed in the cell
Source text: These rats had been operated 1-14 days before the experiment. A plastic tubing was introduced entering through the duodenum wall at about the mid section and bent in such a way that it had its duct directed downwards (i.e. aiming downstream towards the jejunum and being about 2 cm long). An experienced scientist observed the animals for the entire period of pharmacological activity, scoring the behavior and emphasizing the following details:
yawning, sniffing, chewing, licking, rearing, grooming, penile grooming, locomotor activity and stereotypy. The total duration of action where one or several of these behaviors were present was scored.

CCCN1CCc2cccc3c2[C@H]1Cc1ccc(O)c(O)c1-3 [NPA, 6aR-(-)-N-propyl-norapomorphine]
duration of dopaminergic behavior: intense stereotypy: 5 min-9 h
